No constants are given. Whether binding was seen depends on the method and setting. Binding seen in cells or lysates may run through a third protein. A yes stands for co-enrichment or nearness to the bait. Other partners may have been found. No binding means not detected with the bait.

Chains of the proteins cited; added tags and fusions are not shown. Lines headed by an entry give the natural chain unless they say otherwise; changes in a name come on top.
UniProt Q08605: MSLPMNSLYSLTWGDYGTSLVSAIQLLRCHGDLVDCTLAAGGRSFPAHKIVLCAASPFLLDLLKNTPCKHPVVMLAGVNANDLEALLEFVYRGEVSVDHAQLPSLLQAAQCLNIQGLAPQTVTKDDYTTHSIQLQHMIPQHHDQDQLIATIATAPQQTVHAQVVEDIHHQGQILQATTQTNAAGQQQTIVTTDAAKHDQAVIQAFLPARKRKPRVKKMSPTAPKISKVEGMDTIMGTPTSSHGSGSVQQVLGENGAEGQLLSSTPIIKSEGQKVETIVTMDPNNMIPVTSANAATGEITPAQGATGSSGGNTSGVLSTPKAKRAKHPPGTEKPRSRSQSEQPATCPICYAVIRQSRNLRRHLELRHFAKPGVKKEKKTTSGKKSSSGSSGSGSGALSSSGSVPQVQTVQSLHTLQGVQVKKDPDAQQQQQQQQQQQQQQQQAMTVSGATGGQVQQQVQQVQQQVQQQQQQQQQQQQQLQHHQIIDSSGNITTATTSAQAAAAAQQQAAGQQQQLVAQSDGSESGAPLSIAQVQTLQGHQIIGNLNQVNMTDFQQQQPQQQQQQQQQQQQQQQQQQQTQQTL

This assay has as its target GAGA factor (GAF) (Drosophila melanogaster (endogenous in embryos)) (UniProt Q08605). As to the kind of experiment: affinity purification with mass spectrometry; GAF polyclonal antibody coupled to protein A Sepharose; 10 mg nuclear extract of 0-12 h embryos, HEMG-150, 2 h; washed with HEMG-500 plus 0.1% Nonidet P-40; eluted with 0.1 M glycine pH 2.5; triplicate; mock: protein A Sepharose with no antibody.

B1: Pc (protein, UniProt P26017 1-390)
chain: MTGRGKGSKGKLGRDNATDDPVDLVYAAEKIIQKRVKKGVVEYRVKWKGWNQRYNTWEPEVNILDRRLIDIYEQTNKSSGTPSKRGIKKKEKEPDPEPESEEDEYTFTENDVDTHQATTSSATHDKESKKEKKHHHHHHHHHHIKSERNSGRRSESPLTHHHHHHHHESKRQRIDHSSSSNSSFTHNSFVPEPDSNSSSSEDQPLIGTKRKAEVLKESGKIGVTIKTSPDGPTIKPQPTQQVTPSQQQPFQDQQQAEKIASEAATQLKSEQQATPLATEAINTTPAESGAEEEEVANEEGNQQAPQVPSENNNIPKPCNNLAINQKQPLTPLSPRALPPRFWLPAKCNISNRVVITDVTVNLETVTIRECKTERGFFRERDMKGDSSPVA
With B1, the binding result is recorded as “no binding”.

B2: CG2199 (protein, UniProt Q8IRH5 1-733)
chain: MRNILLCENMTKVQKEVRCDHCGTSQGSKSVFSGQKVFLGRKITDVLETITHRSIPSSLPIKICFVCTSTFMSSAALIEKVRETVDRVQEQPAKKTKVAEIEEPSTQESDKKAVKVPKKNTTLRQRSKSIAAFPPSFVNGANTNTEIEIISASPKKLDKTPKKQISRLFEDNLNDSVKLTPAKEVSSTKKAFLNLFGNGGNDAIEVLTESEEEEDSDKGPITINTNNFQCPECEFHAKFPKPYKEHLQKEHGLQRPRIYPCTLCIKTFGVLKTLKNHLRDTHSRTFESEAKTKAKESKEKEAKSGAKNKIDAKAKETNAVSQRKKPKEKKSKEKKTEIKCNVETKVVDEIDDQVNNKKGTDSEDADQTQATKIASFKALNESLMKKRMLENVIDSEYTFAINGSSASTPRADSNNFQCEICDCELMTAKQMQEHMKTVHSIDKPKVFKCHVCEKSLATKQSLKTHMTLHADGAEAPNSSKRKILQDEDEDVDILGTTQIENTAEKVEGPKKSQQSPTKAAKFTNRKILQEEDEVVEIVDAFKTDNTAEDDEGPAEEKIIRSRNNIQHQVDGGMIAPRSPAKKTKKTSHVDLSVSTTNGNSPAKSEKRKKQDKSEDTLPSSDVDIVEEINYNVRPHKKARLESIGDSTADESTLSCDRCGKFVKSRQRLDSHMEKKHAAKLQCTLCKEVYQNQMDYVAHFSNCGSEGGLPCGVANCKKVFTEANFLSSHLRKRH
With B2, the binding result was “binds”.

Values taken from PMC5351981.
